The source of these data is the supplement of paper PMC6411743.

The chains behind the UniProt entries cited, without tags or fusion partners. Where a name states a change or a piece, a line headed by the entry shows the natural chain unless it says otherwise.
UniProt O60911: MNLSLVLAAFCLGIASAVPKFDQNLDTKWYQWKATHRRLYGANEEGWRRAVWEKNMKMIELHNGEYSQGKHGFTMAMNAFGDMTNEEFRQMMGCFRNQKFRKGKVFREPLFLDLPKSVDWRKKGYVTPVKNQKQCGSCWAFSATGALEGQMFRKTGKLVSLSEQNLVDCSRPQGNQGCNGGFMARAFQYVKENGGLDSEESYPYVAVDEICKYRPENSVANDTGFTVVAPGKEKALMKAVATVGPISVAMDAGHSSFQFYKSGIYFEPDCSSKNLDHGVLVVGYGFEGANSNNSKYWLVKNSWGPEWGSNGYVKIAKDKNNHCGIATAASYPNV
UniProt O75132: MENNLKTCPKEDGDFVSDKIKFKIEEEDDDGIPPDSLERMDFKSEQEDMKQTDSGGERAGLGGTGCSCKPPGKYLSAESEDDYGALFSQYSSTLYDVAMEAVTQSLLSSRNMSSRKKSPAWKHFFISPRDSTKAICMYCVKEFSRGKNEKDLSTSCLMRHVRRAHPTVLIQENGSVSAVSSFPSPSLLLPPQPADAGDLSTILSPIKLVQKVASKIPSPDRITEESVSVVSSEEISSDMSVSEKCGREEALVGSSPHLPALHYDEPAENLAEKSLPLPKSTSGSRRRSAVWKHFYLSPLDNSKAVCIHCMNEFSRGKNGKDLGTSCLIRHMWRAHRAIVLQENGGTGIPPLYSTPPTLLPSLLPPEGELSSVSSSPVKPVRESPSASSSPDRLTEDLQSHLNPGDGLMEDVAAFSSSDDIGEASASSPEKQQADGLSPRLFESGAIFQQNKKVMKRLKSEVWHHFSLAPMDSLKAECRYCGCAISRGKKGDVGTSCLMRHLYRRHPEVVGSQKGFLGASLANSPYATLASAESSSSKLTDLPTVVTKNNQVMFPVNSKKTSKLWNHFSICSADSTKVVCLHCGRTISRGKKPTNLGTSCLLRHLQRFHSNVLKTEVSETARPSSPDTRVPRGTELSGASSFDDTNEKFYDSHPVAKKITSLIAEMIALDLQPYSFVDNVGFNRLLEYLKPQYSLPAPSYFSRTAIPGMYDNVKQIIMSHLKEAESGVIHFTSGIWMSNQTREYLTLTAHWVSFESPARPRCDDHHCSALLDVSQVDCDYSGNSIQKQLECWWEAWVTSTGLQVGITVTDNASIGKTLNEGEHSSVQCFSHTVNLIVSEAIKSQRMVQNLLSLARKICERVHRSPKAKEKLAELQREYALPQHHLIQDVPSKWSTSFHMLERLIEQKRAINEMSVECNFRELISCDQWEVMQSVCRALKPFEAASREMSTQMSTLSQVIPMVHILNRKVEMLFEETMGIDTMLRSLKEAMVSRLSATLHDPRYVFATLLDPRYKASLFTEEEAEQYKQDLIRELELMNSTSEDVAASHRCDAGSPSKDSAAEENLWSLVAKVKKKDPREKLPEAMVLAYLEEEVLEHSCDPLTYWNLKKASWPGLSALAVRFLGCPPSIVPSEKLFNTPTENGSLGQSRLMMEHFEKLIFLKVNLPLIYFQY
UniProt O95630, whole entry: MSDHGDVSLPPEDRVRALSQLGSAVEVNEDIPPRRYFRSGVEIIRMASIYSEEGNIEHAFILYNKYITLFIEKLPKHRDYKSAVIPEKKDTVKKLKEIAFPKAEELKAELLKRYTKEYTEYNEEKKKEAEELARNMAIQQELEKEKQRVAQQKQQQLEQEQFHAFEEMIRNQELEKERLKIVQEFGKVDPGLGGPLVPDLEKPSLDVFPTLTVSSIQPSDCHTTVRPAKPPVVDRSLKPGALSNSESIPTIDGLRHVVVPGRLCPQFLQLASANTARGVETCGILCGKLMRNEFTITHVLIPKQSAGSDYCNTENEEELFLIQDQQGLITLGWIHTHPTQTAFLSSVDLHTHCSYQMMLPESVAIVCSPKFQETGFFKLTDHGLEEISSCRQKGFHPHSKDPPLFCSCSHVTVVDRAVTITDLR
UniProt P04818: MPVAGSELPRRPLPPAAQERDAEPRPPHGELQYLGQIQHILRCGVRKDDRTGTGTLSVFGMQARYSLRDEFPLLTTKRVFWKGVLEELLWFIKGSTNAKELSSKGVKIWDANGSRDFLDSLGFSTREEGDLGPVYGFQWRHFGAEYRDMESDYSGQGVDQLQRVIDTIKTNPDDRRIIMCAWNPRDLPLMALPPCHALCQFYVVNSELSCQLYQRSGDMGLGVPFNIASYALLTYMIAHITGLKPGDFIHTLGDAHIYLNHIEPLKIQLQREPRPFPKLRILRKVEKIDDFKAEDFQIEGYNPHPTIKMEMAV
UniProt P48735: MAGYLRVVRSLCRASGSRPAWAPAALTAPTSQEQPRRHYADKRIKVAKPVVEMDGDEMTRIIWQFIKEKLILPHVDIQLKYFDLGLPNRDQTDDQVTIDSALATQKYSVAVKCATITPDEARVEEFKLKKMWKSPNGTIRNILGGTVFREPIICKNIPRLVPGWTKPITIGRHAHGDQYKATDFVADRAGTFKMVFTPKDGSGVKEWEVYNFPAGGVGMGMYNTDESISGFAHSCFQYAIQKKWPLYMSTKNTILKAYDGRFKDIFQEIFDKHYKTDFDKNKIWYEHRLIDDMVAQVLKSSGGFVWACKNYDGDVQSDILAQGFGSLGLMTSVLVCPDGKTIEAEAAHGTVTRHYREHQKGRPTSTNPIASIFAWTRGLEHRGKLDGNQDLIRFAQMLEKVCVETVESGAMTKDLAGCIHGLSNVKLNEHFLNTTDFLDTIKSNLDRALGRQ
UniProt O95373, whole entry: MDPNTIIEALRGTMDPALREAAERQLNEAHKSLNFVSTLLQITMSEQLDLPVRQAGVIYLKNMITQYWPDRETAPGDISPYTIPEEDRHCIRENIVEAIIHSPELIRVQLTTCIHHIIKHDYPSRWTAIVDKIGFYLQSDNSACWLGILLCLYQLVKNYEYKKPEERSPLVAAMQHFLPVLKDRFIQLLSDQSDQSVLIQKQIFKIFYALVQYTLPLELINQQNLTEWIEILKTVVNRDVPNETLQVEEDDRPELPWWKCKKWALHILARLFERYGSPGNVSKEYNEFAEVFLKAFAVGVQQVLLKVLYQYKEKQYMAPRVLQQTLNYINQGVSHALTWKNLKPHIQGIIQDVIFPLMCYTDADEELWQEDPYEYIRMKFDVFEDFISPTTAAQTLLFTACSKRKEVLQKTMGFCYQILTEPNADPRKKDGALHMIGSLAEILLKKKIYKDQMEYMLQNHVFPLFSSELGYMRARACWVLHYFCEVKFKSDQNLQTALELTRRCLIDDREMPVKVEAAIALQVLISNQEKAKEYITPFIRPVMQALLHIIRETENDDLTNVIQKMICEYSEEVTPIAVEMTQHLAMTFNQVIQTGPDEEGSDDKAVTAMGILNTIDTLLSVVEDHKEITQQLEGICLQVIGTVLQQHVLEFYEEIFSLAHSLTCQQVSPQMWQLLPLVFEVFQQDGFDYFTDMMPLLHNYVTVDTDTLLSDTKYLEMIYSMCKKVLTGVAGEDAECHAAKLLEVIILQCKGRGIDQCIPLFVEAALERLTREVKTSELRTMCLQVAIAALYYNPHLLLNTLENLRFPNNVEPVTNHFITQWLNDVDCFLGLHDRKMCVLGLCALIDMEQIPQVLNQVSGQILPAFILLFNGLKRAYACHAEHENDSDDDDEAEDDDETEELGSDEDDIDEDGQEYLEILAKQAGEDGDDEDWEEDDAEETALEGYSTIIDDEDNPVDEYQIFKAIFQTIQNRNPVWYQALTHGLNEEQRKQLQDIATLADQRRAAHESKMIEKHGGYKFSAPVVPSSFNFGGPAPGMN
UniProt O75691: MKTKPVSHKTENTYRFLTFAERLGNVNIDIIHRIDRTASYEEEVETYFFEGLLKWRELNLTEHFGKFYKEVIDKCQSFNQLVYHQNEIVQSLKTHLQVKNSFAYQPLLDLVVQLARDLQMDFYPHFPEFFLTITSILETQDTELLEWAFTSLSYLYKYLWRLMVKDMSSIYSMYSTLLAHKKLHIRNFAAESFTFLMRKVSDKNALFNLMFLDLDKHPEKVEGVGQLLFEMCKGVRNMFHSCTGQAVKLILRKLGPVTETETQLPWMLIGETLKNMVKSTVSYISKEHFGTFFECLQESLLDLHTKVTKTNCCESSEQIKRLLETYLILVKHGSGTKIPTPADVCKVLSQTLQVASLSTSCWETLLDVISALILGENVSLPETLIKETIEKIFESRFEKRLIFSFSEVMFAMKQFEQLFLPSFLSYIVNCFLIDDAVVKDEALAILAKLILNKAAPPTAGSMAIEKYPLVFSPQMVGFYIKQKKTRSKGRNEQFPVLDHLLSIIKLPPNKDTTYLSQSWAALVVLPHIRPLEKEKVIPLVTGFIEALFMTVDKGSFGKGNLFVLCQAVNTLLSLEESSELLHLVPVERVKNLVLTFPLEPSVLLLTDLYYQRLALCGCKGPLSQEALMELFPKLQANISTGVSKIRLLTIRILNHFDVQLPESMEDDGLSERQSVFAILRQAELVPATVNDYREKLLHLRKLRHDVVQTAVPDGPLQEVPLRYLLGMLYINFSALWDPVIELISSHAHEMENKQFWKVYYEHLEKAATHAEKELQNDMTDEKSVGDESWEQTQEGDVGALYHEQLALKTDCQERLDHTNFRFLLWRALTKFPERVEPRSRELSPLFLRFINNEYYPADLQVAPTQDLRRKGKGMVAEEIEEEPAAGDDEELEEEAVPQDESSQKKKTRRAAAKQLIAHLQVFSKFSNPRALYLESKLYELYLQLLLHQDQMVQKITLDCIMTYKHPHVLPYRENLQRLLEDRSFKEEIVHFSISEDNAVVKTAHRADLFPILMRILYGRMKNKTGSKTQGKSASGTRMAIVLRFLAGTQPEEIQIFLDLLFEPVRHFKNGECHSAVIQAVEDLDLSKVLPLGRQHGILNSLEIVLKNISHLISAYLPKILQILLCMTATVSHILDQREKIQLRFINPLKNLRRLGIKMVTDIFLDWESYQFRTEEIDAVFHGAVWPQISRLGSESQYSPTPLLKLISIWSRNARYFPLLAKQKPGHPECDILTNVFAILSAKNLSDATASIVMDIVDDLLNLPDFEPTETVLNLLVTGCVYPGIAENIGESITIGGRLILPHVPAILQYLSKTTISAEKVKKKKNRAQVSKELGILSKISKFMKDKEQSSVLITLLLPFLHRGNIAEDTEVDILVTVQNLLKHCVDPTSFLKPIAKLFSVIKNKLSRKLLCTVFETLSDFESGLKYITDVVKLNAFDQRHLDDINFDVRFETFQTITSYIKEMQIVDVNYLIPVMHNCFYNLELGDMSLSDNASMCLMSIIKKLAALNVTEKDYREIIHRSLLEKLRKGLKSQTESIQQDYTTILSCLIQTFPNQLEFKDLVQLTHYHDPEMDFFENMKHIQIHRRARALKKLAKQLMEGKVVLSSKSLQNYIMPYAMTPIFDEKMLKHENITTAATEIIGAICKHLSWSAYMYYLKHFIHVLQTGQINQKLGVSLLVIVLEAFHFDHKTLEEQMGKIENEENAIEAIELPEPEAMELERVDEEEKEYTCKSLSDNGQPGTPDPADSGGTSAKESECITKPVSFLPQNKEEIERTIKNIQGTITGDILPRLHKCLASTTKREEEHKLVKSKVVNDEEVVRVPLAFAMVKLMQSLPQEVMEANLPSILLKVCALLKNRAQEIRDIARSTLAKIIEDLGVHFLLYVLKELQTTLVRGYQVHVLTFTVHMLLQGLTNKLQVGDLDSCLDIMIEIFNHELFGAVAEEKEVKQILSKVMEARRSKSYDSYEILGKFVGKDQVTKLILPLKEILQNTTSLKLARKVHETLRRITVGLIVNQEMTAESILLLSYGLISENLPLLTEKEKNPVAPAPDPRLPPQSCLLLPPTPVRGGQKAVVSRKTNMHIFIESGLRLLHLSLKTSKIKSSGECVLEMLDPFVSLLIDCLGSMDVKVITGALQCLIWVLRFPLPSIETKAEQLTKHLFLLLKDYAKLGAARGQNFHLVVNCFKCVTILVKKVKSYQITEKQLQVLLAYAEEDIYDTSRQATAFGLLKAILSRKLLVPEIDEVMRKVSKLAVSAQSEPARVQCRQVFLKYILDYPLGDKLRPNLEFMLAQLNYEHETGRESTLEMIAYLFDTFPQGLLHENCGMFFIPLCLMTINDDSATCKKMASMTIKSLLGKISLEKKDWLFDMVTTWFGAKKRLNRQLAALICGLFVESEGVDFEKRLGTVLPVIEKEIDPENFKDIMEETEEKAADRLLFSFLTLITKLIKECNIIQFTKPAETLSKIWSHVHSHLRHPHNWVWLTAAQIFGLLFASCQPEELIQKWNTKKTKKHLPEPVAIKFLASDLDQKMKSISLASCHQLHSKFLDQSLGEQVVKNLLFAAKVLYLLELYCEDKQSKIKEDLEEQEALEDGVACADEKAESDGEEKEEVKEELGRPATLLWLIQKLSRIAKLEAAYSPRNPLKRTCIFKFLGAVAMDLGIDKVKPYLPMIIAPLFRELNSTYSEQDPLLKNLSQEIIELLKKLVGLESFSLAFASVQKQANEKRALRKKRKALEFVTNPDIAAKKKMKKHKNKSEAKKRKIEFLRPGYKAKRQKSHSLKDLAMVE

± gives the standard deviation of the averaged measurements. The list shows a part of the results.

Compound in the first experiment: Nc1nc2c(ncn2[C@@H]2O[C@H](COP(=O)(O)OP(=O)(O)OP(=O)(O)O)[C@@H](O)[C@H]2O)c(=O)[nH]1 [guanosine triphosphate]
Nature of the experiment: NP40-soluble protein abundance relative to vehicle (solubility fold change) (ratio); higher = more soluble protein in presence of GTP. The following applies: concentration: 4mM. In a few lines:
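In three independent experiments, Jurkat crude lysate made by Dounce homogenisation was treated for 10 min at room temperature and then 3 min at 37 °C with eight concentrations ranging from 0.1 to 10 mM. It was then solubilised with 0.8% NP40 plus benzonase for 60 min at 4 °C and ultracentrifuged. The supernatant was TMT-labelled for LC-MS/MS, and each value is the fold change against the detergent-processed vehicle for the same replicate, using vsn-normalised intensities.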
Take ATP6V1G1 (UniProt O75348): the NP40-soluble protein abundance was found to be 1.02 ± 0.031.
Regarding GRAP2 (UniProt O75791), the NP40-soluble protein abundance came out at 0.896 ± 0.041.
With TXNDC12 (UniProt O95881), the NP40-soluble protein abundance was found to be 0.971 ± 0.1.
In the case of KATNA1 (UniProt O75449), the NP40-soluble protein abundance is 0.969 ± 0.079.
Regarding UniProt O75947, the NP40-soluble protein abundance came out at 1.04 ± 0.14.
On to CTSV (UniProt O60911), for which the NP40-soluble protein abundance turned out to be 0.953 ± 0.0099.
With ZBED4 (UniProt O75132), the NP40-soluble protein abundance was found to be 0.981 ± 0.058.
Same read-out and setting: the value for UniProt O75190-2|O75190-4|O75190 was 1.23 ± 0.073; that for SH3BGRL (UniProt O75368) was 0.873 ± 0.17; that for UniProt O75145 and related entries was 0.993 ± 0.097.
Still for that read-out and setting: then UniProt O75964, with 0.899 ± 0.025; and TK1 (UniProt P04183), with 0.994 ± 0.035; and UniProt O95551 and related entries, with 0.924 ± 0.053.
As for UniProt O95696 and related entries, the NP40-soluble protein abundance stood at 1.06 ± 0.17.
On the same count and under the same terms, the value for UniProt O94766 and related entries was 0.976 ± 0.045.
Still for that read-out and setting: the value for STAMBP (UniProt O95630) was 0.876 ± 0.088; that for UniProt O95786 and related entries was 0.93 ± 0.075; that for UniProt O75164 was 0.984 ± 0.032.
Take SNX4 (UniProt O95219): the NP40-soluble protein abundance was 1.04 ± 0.062.
Regarding EIF2S1 (UniProt P05198), the NP40-soluble protein abundance was 0.964 ± 0.022.
On the same count and under the same terms, then TYMS (UniProt P04818), with 0.855 ± 0.029; and SNRNP200 (UniProt O75643), with 1.25 ± 0.22; and NDUFA7 (UniProt O95182), with 1.23 ± 0.23.
Consider NPM3 (UniProt O75607), for which the NP40-soluble protein abundance stood at 1.05 ± 0.11.
Consider UniProt O75928 and related entries, for which the NP40-soluble protein abundance was determined as 0.898 ± 0.033.
Still for that read-out and setting: then BANF1 (UniProt O75531), with 5.21 ± 3.3.
Still for that read-out and setting: then KIF4A (UniProt O95239), with 0.993 ± 0.018; and P0619_C544|P48735 (UniProt P48735), with 0.898 ± 0.031; and WDHD1 (UniProt O75717), with 0.952 ± 0.048.
On the same count and under the same terms, the value for ROCK2 (UniProt O75116) was 0.956 ± 0.077; that for IPO7 (UniProt O95373) was 0.946 ± 0.072; that for UniProt O75396 was 0.853 ± 0.057.
For the target PDCD6 (UniProt O75340), the NP40-soluble protein abundance was found to be 0.898 ± 0.043.
As to FUCA1 (UniProt P04066), the NP40-soluble protein abundance came out at 0.877 ± 0.12.
Same read-out and setting: then RPLP2 (UniProt P05387), with 1.04 ± 0.037.
Still for that read-out and setting: the value for UTP20 (UniProt O75691) was 1.26 ± 0.16; that for UniProt O75170 and related entries was 0.973 ± 0.071.

The same experiment, now with this note: concentration: 6mM.
For ATP6V1G1 (UniProt O75348), the NP40-soluble protein abundance came out at 1.04 ± 0.019.
Still for that read-out and setting: then GRAP2 (UniProt O75791), with 0.875 ± 0.042; and TXNDC12 (UniProt O95881), with 0.937 ± 0.089; and KATNA1 (UniProt O75449), with 0.967 ± 0.055.
On the same count and under the same terms, the value for UniProt O75947 was 1.12 ± 0.1; that for CTSV (UniProt O60911) was 1.01 ± 0.052; that for ZBED4 (UniProt O75132) was 0.954 ± 0.024.
On the same count and under the same terms, the value for UniProt O75190-2|O75190-4|O75190 was 1.14 ± 0.033.
With SH3BGRL (UniProt O75368), the NP40-soluble protein abundance came out at 0.87 ± 0.12.
For the target UniProt O75145 and related entries, the NP40-soluble protein abundance turned out to be 0.974 ± 0.014.
The same measure, in the same setting: the value for UniProt O75964 was 0.917 ± 0.024; that for TK1 (UniProt P04183) was 0.985 ± 0.014; that for UniProt O95551 and related entries was 0.94 ± 0.052.
Consider UniProt O95696 and related entries, for which the NP40-soluble protein abundance was determined as 1.08 ± 0.17.
Regarding UniProt O94766 and related entries, the NP40-soluble protein abundance came to 0.923 ± 0.014.
Still for that read-out and setting: then STAMBP (UniProt O95630), with 0.878 ± 0.052.
On the same count and under the same terms, the value for UniProt O95786 and related entries was 0.939 ± 0.042.
Still for that read-out and setting: then UniProt O75164, with 0.949 ± 0.028; and SNX4 (UniProt O95219), with 0.957 ± 0.082.
In the case of EIF2S1 (UniProt P05198), the NP40-soluble protein abundance is 0.967 ± 0.016.
Consider TYMS (UniProt P04818), for which the NP40-soluble protein abundance stood at 0.879 ± 0.027.
On the same count and under the same terms, then SNRNP200 (UniProt O75643), with 1.33 ± 0.23; and NDUFA7 (UniProt O95182), with 1.24 ± 0.22.
With NPM3 (UniProt O75607), the NP40-soluble protein abundance amounted to 1.08 ± 0.048.
Still for that read-out and setting: the value for UniProt O75928 and related entries was 0.89 ± 0.072; that for BANF1 (UniProt O75531) was 5.08 ± 3.
KIF4A (UniProt O95239): the NP40-soluble protein abundance is 1 ± 0.015.
Still for that read-out and setting: then P0619_C544|P48735 (UniProt P48735), with 0.907 ± 0.038; and WDHD1 (UniProt O75717), with 0.961 ± 0.034.
Still for that read-out and setting: the value for ROCK2 (UniProt O75116) was 0.947 ± 0.071; that for IPO7 (UniProt O95373) was 0.909 ± 0.039.
On the same count and under the same terms, the value for UniProt O75396 was 0.854 ± 0.041; that for PDCD6 (UniProt O75340) was 0.932 ± 0.06; that for FUCA1 (UniProt P04066) was 0.856 ± 0.11.
As to RPLP2 (UniProt P05387), the NP40-soluble protein abundance came to 1.09 ± 0.03.
Still for that read-out and setting: then UTP20 (UniProt O75691), with 1.27 ± 0.21; and UniProt O75170 and related entries, with 0.992 ± 0.056.
